# Reference: PubChem BioAssay AID1259280 (Sanger Institute, 2017)
# Purpose: 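Kinome siRNA screen for partners that synergise with BYL719, cetuximab or trametinib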 (primary screen)
# System: human SNU407 colorectal cancer cells
# Knock-down reagent: siRNA pool against human genes
# Conditions: anchor drugs BYL719 at 1 µM, cetuximab at 5 µg/ml or trametinib at 10 nM, or DMSO vehicle alone; exposure time not given
# Measured: 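Viability per well scaled to a non-targeting pool and averaged over replicates, with a robust z-score from controls and a synergy score per anchor drug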
# Scale: viability z-score, no drug and viability vs control, no drug: higher = more cells survive the knock-down; synergy with trametinib and synergy with BYL719 and synergy with cetuximab: higher = stronger synergy of knock-down with drug
# Rule for the call: 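a knock-down counts as essential when its robust viability z-score without drug is below -3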
# Meaning of the calls: active = essential (knock-down alone kills cells); inactive = no change without drug
# Here is a random part of 794 deposited reagents. 12 of them (1.5%) count as active. 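Calls cover knock-down without drug only; synergy scores stand apart, values above 0.15 being treated as synergy.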 Unmarked entries are inactive. No viability above 1 is reported: the scale is capped. Not stated in the record: the amount of reagent, the time to read-out.
The first 4 records, to show the layout:
target gene,"viability z-score, no drug","viability vs control, no drug (fraction of control)",synergy with trametinib,synergy with BYL719,synergy with cetuximab
POMK (protein O-mannose kinase),0.6,0.977,-0.0921,-0.0153,-0.0623
CIB2 (calcium and integrin binding family member 2),-0.265,0.911,-0.042,0.0483,-0.00626
DYRK1A,0.34,0.957,-0.154,0.087,0.0441
CDKN1A (cyclin dependent kinase inhibitor 1A),0.901,1,-0.0343,-0.038,0.0459

The list itself, repeating the preview:
target gene,"viability z-score, no drug","viability vs control, no drug (fraction of control)",synergy with trametinib,synergy with BYL719,synergy with cetuximab
POMK (protein O-mannose kinase),0.6,0.977,-0.0921,-0.0153,-0.0623
CIB2 (calcium and integrin binding family member 2),-0.265,0.911,-0.042,0.0483,-0.00626
DYRK1A,0.34,0.957,-0.154,0.087,0.0441
CDKN1A (cyclin dependent kinase inhibitor 1A),0.901,1,-0.0343,-0.038,0.0459
EPHA8 (EPH receptor A8),-0.707,0.877,-0.0387,-0.106,-0.201
STK17A (serine/threonine kinase 17a),-0.402,0.9,-0.038,0.0535,-0.0407
TSSK4 (testis specific serine kinase 4),0.901,1,0.00368,0.0649,0.0494
SRMS,-1.55,0.813,0.0298,-0.0267,-0.0717
DBF4 (DBF4-CDC7 kinase regulatory subunit),0.372,0.96,0.0151,-0.0958,-0.125
GRK2 (G protein-coupled receptor kinase 2),-1.58,0.81,-0.00578,0.0602,0.05
NME7 (NME/NM23 family member 7),0.901,1,-0.117,-0.0378,0.0296
CDKL1 (cyclin dependent kinase like 1),-0.975,0.857,-0.0354,-0.105,-0.0659
STK25 (serine/threonine kinase 25),0.0757,0.937,-0.0466,-0.0261,0.0211
PRKACB (protein kinase cAMP-activated catalytic subunit beta),-1.18,0.841,0.0145,-0.0306,-0.0549
MARK2 (microtubule affinity regulating kinase 2),0.316,0.955,-0.0557,-0.146,0.0389
PDGFRA (platelet derived growth factor receptor alpha),0.901,1,0.00741,-0.121,0.0345
NIM1K (NIM1 serine/threonine protein kinase),0.901,1,-0.0603,-0.0492,-0.0886
CDK7 (cyclin dependent kinase 7),0.901,1,0.0433,0.113,-0.0225
NRK (Nik related kinase),0.901,1,-0.151,0.0889,0.0188
MST1R (macrophage stimulating 1 receptor),0.388,0.961,0.0145,0.129,0.0195
MASTL (microtubule associated serine/threonine kinase like),0.507,0.97,0.135,0.114,0.0213
CDKL4 (cyclin dependent kinase like 4),-1.78,0.795,-0.079,-0.0244,-0.0151
FOXP1 (forkhead box P1),-1.12,0.845,0.0746,0.0354,0.0472
PKN1 (protein kinase N1),0.695,0.984,-0.00293,0.0625,-0.0635
"SRC (SRC proto-oncogene, non-receptor tyrosine kinase)",-0.329,0.906,-0.0577,-0.0294,0.0478
TESK2 (testis associated actin remodelling kinase 2),0.855,0.997,-0.101,-0.129,-0.0918
PAK1 (p21 (RAC1) activated kinase 1),-1.3,0.832,-0.116,0.0471,-0.000406
PCK1 (phosphoenolpyruvate carboxykinase 1),-0.0265,0.929,0.108,0.173,0.0792
PTK7 (protein tyrosine kinase 7 (inactive)),-1.51,0.816,-0.0263,0.104,0.0348
CDK15 (cyclin dependent kinase 15),0.901,1,-0.0418,-0.101,-0.00182
STK3 (serine/threonine kinase 3),0.901,1,-0.0407,0.000926,-0.073
PTK2 (protein tyrosine kinase 2),-1.5,0.817,0.0232,0.101,0.0448
TCF12 (transcription factor 12),-0.493,0.893,-0.0617,-0.0331,0.03
PDK1 (pyruvate dehydrogenase kinase 1),0.204,0.947,0.0136,0.0645,0.0132
DGUOK (deoxyguanosine kinase),-0.774,0.872,0.0835,0.0833,0.0555
PRKX (protein kinase cAMP-dependent X-linked catalytic subunit),0.901,1,0.0576,0.0179,0.0534
CSNK2B (casein kinase 2 beta),-0.476,0.895,0.0329,0.0127,-0.0381
RIPK3 (receptor interacting serine/threonine kinase 3),0.901,1,-0.0697,0.0951,0.0332
RPS6KA2 (ribosomal protein S6 kinase A2),-1.21,0.839,0.0246,0.117,0.136
SMAD4 (SMAD family member 4),-0.411,0.9,-0.212,0.0936,-0.0398
PSKH1 (protein serine kinase H1),0.425,0.964,-0.0886,0.0817,0.114
GRK4 (G protein-coupled receptor kinase 4),-0.13,0.921,-0.00244,-0.00416,-0.0135
ITK (IL2 inducible T cell kinase),0.901,1,-0.102,-0.177,-0.0886
"CKMT2 (creatine kinase, mitochondrial 2)",0.371,0.96,-0.0411,0.0443,0.0941
ITPKA (inositol-trisphosphate 3-kinase A),0.629,0.979,0.0257,0.037,0.0238
ITPKB (inositol-trisphosphate 3-kinase B),0.901,1,0.0484,0.0863,0.105
CUL1 (cullin 1),0.0398,0.934,-0.0603,-0.0237,-0.0545
EPHB6 (EPH receptor B6),0.0513,0.935,-0.0727,-0.0381,-0.016
CAMK2G (calcium/calmodulin dependent protein kinase II gamma),0.541,0.973,-0.068,0.0205,-0.0213
SIK3 (SIK family kinase 3),0.0885,0.938,0.00671,0.0687,0.0574
